The list shows a part of the results.
Columns and labels:
Experiment in all cases: log2 fold change, soluble protein after heating vs DMSO (PISA); higher = thermal stabilisation; K562 lysate, 10 uM; active = over 0.2 and 3.5 SD of the protein, either way, in both replicates (recomputed)
vemurafenib = compound: CCCS(=O)(=O)Nc1ccc(F)c(C(=O)c2c[nH]c3ncc(-c4ccc(Cl)cc4)cc23)c1F [vemurafenib]
In short: (§1)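 Log-two fold change in thermal stability relative to solvent controls is reported from duplicates. For each sample, crude K562 extract from dounce-homogenised pellets in PBS pH 7.4 with 1 mM MgCl2, at 1 mg/mL protein, was treated with 10 μM compound for 30 min. Aliquots heated for 3 min across 48°C-58°C were pooled, brought to 0.5% NP-40 at 4°C and cleared at 21,000xg for 90 min. The supernatant was quantified by TMTpro 16plex LC-MS/MS with channel sums equalised.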

The chains behind the UniProt entries cited, without tags or fusion partners. Where a name states a change or a piece, a line headed by the entry shows the natural chain unless it says otherwise.
UniProt P30519: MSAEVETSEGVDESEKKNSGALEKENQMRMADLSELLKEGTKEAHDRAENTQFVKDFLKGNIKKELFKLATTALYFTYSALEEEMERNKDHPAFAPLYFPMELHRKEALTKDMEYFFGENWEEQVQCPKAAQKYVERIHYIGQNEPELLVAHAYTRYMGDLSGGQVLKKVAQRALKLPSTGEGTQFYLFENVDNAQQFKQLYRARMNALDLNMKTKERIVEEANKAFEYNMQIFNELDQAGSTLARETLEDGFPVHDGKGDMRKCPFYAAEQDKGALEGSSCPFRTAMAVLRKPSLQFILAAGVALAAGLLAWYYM
UniProt H0YH80: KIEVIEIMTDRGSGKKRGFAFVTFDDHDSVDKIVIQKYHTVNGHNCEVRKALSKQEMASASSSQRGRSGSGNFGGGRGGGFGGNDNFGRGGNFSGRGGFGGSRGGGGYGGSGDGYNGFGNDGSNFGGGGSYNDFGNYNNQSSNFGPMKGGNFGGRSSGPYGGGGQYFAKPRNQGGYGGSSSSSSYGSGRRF
UniProt P07910: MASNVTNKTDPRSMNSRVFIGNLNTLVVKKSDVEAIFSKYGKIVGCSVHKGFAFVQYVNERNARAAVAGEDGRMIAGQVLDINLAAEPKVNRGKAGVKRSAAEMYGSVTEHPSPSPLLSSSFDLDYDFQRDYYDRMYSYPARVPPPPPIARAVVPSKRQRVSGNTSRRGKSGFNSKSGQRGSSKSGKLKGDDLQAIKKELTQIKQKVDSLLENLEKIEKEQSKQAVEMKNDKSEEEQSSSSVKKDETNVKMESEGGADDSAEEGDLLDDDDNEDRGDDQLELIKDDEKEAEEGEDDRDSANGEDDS
UniProt P05114: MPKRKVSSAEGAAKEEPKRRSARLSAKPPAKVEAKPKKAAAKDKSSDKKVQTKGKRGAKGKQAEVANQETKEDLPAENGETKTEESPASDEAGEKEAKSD
UniProt Q00839, whole entry, looked up: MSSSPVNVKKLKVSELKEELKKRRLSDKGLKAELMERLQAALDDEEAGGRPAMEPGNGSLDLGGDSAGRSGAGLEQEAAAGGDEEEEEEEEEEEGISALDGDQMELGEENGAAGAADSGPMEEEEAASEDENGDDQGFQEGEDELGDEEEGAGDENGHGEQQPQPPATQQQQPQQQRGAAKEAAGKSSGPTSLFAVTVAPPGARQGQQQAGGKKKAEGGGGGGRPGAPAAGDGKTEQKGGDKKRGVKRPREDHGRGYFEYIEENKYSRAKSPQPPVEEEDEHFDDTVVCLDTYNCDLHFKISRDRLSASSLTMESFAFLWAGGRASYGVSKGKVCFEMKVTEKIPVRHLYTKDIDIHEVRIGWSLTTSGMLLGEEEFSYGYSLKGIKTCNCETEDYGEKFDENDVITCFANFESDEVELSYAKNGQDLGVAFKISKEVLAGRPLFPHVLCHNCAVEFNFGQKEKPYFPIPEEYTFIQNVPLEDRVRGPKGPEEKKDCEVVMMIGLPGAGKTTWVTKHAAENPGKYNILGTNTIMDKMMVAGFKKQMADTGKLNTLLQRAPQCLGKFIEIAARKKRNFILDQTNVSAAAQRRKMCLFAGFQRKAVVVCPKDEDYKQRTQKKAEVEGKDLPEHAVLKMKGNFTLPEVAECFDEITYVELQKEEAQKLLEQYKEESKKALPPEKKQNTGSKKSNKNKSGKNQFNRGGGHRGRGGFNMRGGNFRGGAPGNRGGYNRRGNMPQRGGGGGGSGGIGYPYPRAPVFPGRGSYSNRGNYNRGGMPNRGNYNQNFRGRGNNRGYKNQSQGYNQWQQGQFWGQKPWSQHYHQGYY
UniProt Q15751: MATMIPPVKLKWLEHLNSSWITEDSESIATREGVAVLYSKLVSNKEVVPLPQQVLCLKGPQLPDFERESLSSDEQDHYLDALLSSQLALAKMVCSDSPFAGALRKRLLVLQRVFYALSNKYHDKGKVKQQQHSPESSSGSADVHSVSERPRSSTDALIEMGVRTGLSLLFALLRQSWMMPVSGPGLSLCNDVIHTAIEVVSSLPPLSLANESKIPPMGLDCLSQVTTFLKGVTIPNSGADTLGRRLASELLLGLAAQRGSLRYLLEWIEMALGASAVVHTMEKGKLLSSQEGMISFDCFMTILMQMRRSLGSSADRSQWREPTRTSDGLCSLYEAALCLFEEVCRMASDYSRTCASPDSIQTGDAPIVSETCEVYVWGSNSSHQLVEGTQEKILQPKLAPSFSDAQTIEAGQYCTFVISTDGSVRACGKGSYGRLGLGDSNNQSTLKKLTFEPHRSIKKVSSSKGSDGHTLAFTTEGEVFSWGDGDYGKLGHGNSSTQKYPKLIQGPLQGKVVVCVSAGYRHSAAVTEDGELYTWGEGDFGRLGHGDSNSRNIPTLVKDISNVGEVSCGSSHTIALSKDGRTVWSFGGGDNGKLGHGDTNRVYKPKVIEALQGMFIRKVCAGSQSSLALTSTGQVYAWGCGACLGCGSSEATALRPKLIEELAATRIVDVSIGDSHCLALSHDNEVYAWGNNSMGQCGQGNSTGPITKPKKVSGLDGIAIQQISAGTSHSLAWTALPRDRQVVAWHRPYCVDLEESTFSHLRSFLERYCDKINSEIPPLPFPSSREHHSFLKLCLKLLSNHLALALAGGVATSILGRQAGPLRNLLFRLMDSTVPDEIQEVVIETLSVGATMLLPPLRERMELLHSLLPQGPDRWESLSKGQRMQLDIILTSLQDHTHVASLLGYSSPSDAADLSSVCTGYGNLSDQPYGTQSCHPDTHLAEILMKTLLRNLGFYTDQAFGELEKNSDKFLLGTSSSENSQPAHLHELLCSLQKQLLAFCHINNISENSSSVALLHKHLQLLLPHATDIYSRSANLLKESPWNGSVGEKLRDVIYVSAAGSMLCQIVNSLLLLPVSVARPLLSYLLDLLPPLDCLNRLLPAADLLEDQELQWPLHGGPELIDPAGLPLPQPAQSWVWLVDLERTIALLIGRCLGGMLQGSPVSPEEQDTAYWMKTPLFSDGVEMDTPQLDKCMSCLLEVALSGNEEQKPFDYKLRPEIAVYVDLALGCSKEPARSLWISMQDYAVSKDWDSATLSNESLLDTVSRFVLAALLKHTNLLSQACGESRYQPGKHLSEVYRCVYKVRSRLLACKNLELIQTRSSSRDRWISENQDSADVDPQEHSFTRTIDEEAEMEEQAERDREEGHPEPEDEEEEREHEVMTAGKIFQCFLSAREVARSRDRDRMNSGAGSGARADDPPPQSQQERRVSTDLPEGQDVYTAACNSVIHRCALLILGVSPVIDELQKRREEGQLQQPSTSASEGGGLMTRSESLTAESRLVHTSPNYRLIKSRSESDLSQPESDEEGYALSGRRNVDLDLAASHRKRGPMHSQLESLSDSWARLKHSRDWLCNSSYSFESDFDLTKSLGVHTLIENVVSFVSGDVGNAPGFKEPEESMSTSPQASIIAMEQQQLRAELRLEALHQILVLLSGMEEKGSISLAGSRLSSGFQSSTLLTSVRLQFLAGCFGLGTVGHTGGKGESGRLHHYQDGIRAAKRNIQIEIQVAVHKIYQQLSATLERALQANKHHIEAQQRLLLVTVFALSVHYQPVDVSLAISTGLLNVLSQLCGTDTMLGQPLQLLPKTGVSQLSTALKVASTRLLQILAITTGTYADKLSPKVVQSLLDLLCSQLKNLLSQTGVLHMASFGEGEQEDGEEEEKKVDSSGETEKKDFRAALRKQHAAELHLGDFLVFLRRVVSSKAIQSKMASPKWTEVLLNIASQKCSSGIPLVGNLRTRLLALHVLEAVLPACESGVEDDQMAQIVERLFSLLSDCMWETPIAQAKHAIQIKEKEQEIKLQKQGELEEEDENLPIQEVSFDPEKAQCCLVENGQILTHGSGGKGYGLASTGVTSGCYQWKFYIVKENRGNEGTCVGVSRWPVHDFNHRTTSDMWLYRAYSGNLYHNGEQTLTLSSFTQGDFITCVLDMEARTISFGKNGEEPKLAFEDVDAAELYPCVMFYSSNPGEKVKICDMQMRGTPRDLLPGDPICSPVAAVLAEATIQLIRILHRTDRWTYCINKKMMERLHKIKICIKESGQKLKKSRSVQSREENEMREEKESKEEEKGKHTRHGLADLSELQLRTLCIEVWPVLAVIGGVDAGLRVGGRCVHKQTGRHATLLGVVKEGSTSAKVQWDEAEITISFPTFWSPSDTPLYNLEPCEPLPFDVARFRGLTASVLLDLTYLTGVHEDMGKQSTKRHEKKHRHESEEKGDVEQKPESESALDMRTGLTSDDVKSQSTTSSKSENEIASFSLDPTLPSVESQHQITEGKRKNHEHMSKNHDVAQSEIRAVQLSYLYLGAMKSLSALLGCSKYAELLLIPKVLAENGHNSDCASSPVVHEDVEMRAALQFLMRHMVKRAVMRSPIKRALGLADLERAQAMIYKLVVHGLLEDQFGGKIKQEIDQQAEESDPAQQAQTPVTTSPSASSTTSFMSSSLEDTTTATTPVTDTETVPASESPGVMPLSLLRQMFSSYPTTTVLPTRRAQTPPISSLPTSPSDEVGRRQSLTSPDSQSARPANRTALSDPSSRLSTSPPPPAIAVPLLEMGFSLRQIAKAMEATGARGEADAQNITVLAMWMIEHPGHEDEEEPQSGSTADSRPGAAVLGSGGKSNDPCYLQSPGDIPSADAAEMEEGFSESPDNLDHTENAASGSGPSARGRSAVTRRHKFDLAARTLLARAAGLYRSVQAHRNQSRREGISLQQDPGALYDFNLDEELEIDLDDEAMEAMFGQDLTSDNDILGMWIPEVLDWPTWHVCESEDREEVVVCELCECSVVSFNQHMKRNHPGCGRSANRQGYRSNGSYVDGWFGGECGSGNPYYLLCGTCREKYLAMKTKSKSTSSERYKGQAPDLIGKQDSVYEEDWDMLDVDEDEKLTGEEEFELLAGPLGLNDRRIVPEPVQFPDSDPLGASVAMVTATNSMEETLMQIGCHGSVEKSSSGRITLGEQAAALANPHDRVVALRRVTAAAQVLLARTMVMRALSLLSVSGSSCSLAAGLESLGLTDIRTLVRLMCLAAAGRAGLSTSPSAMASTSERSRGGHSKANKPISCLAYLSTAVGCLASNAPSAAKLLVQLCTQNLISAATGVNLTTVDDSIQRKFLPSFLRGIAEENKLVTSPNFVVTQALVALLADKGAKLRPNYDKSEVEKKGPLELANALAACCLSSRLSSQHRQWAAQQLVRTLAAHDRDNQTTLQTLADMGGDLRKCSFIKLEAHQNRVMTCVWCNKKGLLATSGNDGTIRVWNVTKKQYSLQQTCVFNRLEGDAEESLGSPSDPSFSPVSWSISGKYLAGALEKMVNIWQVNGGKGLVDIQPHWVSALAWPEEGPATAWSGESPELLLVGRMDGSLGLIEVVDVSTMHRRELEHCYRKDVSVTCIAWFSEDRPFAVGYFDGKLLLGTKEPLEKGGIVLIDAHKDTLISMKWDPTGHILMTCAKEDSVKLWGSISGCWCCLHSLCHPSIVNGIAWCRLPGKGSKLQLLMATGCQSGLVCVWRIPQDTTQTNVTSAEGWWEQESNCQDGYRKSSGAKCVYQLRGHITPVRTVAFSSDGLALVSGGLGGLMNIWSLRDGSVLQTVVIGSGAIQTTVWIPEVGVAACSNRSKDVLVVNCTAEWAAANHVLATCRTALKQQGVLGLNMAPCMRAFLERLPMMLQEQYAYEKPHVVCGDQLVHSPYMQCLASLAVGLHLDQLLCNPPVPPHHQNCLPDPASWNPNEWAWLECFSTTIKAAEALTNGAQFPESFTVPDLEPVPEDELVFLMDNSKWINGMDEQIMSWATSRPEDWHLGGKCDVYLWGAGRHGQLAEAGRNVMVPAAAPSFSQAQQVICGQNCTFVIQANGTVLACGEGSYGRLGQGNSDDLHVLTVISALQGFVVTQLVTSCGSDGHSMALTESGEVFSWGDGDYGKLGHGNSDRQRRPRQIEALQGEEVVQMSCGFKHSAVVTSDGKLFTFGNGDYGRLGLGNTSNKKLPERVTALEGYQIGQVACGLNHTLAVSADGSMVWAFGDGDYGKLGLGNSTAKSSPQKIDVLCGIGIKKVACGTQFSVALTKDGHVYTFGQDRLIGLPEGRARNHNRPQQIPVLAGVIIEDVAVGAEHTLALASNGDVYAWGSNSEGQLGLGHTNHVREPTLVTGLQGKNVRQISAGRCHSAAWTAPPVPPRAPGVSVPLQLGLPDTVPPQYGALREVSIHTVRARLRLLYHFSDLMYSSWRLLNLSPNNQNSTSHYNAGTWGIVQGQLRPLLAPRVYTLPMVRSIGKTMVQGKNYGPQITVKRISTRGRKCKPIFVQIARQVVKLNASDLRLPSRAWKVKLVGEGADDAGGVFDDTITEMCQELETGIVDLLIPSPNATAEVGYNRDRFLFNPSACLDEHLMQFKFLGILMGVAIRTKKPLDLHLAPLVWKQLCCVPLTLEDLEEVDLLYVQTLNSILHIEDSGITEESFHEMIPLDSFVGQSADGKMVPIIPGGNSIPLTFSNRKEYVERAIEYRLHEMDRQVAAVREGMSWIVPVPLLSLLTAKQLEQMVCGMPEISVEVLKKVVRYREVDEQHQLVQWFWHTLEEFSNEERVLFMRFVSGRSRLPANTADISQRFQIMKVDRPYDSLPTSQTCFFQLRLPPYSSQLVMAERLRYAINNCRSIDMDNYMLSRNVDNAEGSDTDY

[1] = compound: CCCS(=O)(=O)Nc1ccc(F)c(C(=O)c2c[nH]c3ncc(Cl)cc23)c1F
In short: as §1

barasertib = compound: CCN(CCCOc1ccc2c(Nc3cc(CC(=O)Nc4cccc(F)c4)[nH]n3)ncnc2c1)CCOP(=O)(O)O [barasertib]
In short: as §1

[2] = compound: CC[C@@H]1C(=O)N(C)c2cnc(Nc3ccc(C(=O)NC4CCN(C)CC4)cc3OC)nc2N1C1CCCC1
In short: as §1

volasertib = compound: CC[C@@H]1C(=O)N(C)c2cnc(Nc3ccc(C(=O)N[C@H]4CC[C@H](N5CCN(CC6CC6)CC5)CC4)cc3OC)nc2N1C(C)C [volasertib]
In short: as §1

[3] = compound: CCn1c(C(=O)N(C2CC2)C2CC2)cc2c3c(ncn3C)c(Nc3cc(C)n(C)n3)nc21
In short: as §1

[4] = compound: CCn1cc(-c2ccnc3[nH]c(-c4cccc(CN(C)C)c4)cc23)c(-c2ccc(NC(=O)N(C)C)cc2)n1
In short: as §1

[5] = compound: CN1CCC(CNc2ccc3ncc(-c4cccc(OC(F)(F)F)c4)n3n2)CC1
In short: as §1

saracatinib = compound: CN1CCN(CCOc2cc(OC3CCOCC3)c3c(Nc4c(Cl)ccc5c4OCO5)ncnc3c2)CC1 [saracatinib]
In short: as §1

sotrastaurin = compound: CN1CCN(c2nc(C3=C(c4c[nH]c5ccccc45)C(=O)NC3=O)c3ccccc3n2)CC1 [sotrastaurin]
In short: as §1

alvocidib = compound: CN1CC[C@H](c2c(O)cc(O)c3c(=O)cc(-c4ccccc4Cl)oc23)[C@H](O)C1 [alvocidib]
In short: as §1

Tubastatin A = compound: CN1CCc2c(c3ccccc3n2Cc2ccc(C(=O)NO)cc2)C1 [Tubastatin A]
In short: as §1

[6] = compound: CNC(=O)C1=CC=CC=C1NC2=NC(=NC=C2Cl)NC3=C(C=C(C=C3)N4CCOCC4)OC
In short: as §1

defactinib = compound: CNC(=O)c1ccc(Nc2ncc(C(F)(F)F)c(NCc3nccnc3N(C)S(C)(=O)=O)n2)cc1 [defactinib]
In short: as §1

[7] = compound: CNc1nc(-c2ccc3c(N)n[nH]c3c2)cc(N2C[C@@H](C(=O)NC3CCCCC3)CC[C@H]2C)n1
In short: as §1

encorafenib = compound: COC(=O)N[C@@H](C)CNc1nccc(-c2cn(C(C)C)nc2-c2cc(Cl)cc(NS(C)(=O)=O)c2F)n1 [encorafenib]
In short: as §1

[8] = compound: COC(=O)[C@H](CCSC)NC(=O)C1=C(C=C(C=C1)NC[C@H](CS)N)C2=CC=CC=C2
In short: as §1

alisertib = compound: COc1cc(Nc2ncc3c(n2)-c2ccc(Cl)cc2C(c2c(F)cccc2OC)=NC3)ccc1C(=O)O [alisertib]
In short: as §1

[9] = compound: COc1cc2nc(-c3cc(F)ccc3O)nc(N[C@@H]3CNC[C@H]3C(C)(C)O)c2cc1OC
In short: as §1

gefitinib = compound: COc1cc2ncnc(Nc3ccc(F)c(Cl)c3)c2cc1OCCCN1CCOCC1 [gefitinib]
In short: as §1

Target | log2 fold change (vemurafenib) | log2 fold change [1] | log2 fold change (barasertib) | log2 fold change [2] | log2 fold change (volasertib) | log2 fold change [3] | log2 fold change [4] | log2 fold change [5] | log2 fold change (saracatinib) | log2 fold change (sotrastaurin) | log2 fold change (alvocidib) | log2 fold change (Tubastatin A) | log2 fold change [6] | log2 fold change (defactinib) | log2 fold change [7] | log2 fold change (encorafenib) | log2 fold change [8] | log2 fold change (alisertib) | log2 fold change [9] | log2 fold change (gefitinib)
HNRNPD isoform 3 (UniProt Q14103) | inactive: 0.024 | inactive: -0.028 | inactive: -0.033 | inactive: 0.128 | inactive: 0.014 | inactive: 0.077 | inactive: -0.077 | inactive: -0.023 | inactive: 0.048 | inactive: -0.066 | inactive: 0.017 | inactive: 0.008 | inactive: 0.004 | inactive: 0.117 | inactive: 0.146 | inactive: 0.036 | inactive: 0.016 | inactive: 0.024 | inactive: 0.001 | inactive: 0.113
HOMEZ isoform 3 (UniProt Q8IX15) | inactive: 0.126 | inactive: 0.069 | inactive: 0.095 | inactive: 0.033 | inactive: -0.049 | inactive: 0.117 | inactive: -0.095 | inactive: 0.244 | inactive: 0.032 | inactive: -0.011 | inactive: 0.05 | inactive: -0.007 | inactive: 0.011 | inactive: 0.014 | inactive: -0.016 | inactive: -0.026 | inactive: -0.017 | inactive: -0.03 | inactive: 0.109 | inactive: -0.015
HNRNPUL1 (UniProt Q9BUJ2) | inactive: -0.042 | inactive: 0.005 | inactive: -0.004 | inactive: -0.032 | inactive: 0.005 | inactive: 0.034 | inactive: 0.017 | inactive: 0.019 | inactive: 0.041 | inactive: 0.014 | inactive: 0.006 | inactive: 0.01 | inactive: -0.011 | inactive: 0.002 | inactive: -0.027 | inactive: 0.003 | inactive: -0.003 | inactive: -0.012 | inactive: 0.007 | inactive: -0.015
HSPA2 (UniProt P54652) | inactive: 0.122 | inactive: -0.027 | inactive: -0.163 | inactive: -0.012 | inactive: 0 | inactive: -0.087 | inactive: -0.257 | inactive: 0.281 | inactive: 0.011 | inactive: 0.062 | inactive: -0.139 | inactive: 0.004 | inactive: -0.015 | inactive: -0.01 | inactive: 0.036 | inactive: -0.017 | inactive: 0.045 | inactive: -0.06 | inactive: 0.019 | inactive: 0.092
HNRNPK isoform 2 (UniProt P61978) | inactive: 0.018 | inactive: 0.02 | inactive: -0.046 | inactive: 0.007 | inactive: -0.013 | inactive: -0.002 | inactive: 0.011 | inactive: 0.006 | inactive: -0.023 | inactive: -0.015 | inactive: 0.001 | inactive: -0.097 | inactive: 0.016 | inactive: -0.029 | inactive: -0.005 | inactive: 0.007 | inactive: -0.023 | inactive: 0.005 | inactive: -0.01 | inactive: 0.025
HSPA14 (UniProt Q0VDF9) | inactive: 0.023 | inactive: 0.011 | inactive: 0.001 | inactive: -0.026 | inactive: -0.043 | inactive: 0.013 | inactive: 0.04 | inactive: -0.021 | inactive: 0.002 | inactive: 0.039 | inactive: 0.001 | inactive: -0.081 | inactive: 0.01 | inactive: 0.012 | inactive: -0.011 | inactive: -0.004 | inactive: 0.153 | inactive: 0.028 | inactive: 0 | inactive: 0.02
HMOX2 (UniProt P30519) | inactive: -0.059 | inactive: -0.015 | inactive: 0.025 | inactive: -0.015 | inactive: 0.005 | inactive: -0.012 | inactive: -0.041 | inactive: -0.01 | inactive: 0.017 | inactive: 0.036 | inactive: -0.024 | inactive: -0.065 | inactive: -0.032 | inactive: -0.029 | inactive: 0.006 | inactive: 0.016 | inactive: -0.063 | inactive: 0.001 | inactive: 0.004 | inactive: -0.022
HMG20A (UniProt Q9NP66) | inactive: -0.008 | inactive: 0.031 | inactive: 0.038 | inactive: 0.071 | inactive: -0.035 | inactive: -0.022 | inactive: -0.005 | inactive: 0.007 | inactive: 0.013 | inactive: 0.024 | inactive: -0.048 | inactive: 0.003 | inactive: -0.025 | inactive: -0.023 | inactive: -0.055 | inactive: -0.012 | inactive: -0.004 | inactive: 0.01 | inactive: 0.066 | inactive: 0.01
HGS (UniProt O14964) | inactive: -0.023 | inactive: 0.012 | inactive: -0.019 | inactive: -0.004 | inactive: 0.003 | inactive: -0.002 | inactive: -0.005 | inactive: -0.007 | inactive: 0.012 | inactive: -0.058 | inactive: 0.001 | inactive: 0.035 | inactive: 0 | inactive: -0.018 | inactive: 0.005 | inactive: 0.012 | inactive: -0.009 | inactive: -0.015 | inactive: 0.006 | inactive: 0.017
HNRNPA1 (UniProt H0YH80) | inactive: 0.038 | inactive: 0.09 | inactive: 0.064 | inactive: -0.013 | inactive: 0.014 | inactive: 0.024 | inactive: 0.007 | inactive: 0.118 | inactive: 0.029 | inactive: 0.095 | inactive: 0.079 | inactive: -0.041 | inactive: -0.003 | inactive: -0.045 | inactive: -0.135 | inactive: 0.041 | inactive: -0.028 | inactive: 0.035 | inactive: -0.022 | inactive: 0.007
HSD17B12 (UniProt Q53GQ0) | inactive: 0.073 | inactive: 0.005 | inactive: 0.047 | inactive: 0.003 | inactive: -0.096 | inactive: -0.024 | active: -0.304 | inactive: -0.107 | inactive: 0.105 | inactive: 0.071 | inactive: 0.012 | inactive: -0.089 | inactive: -0.11 | inactive: -0.021 | inactive: -0.046 | inactive: -0.016 | inactive: 0.035 | inactive: 0.022 | inactive: 0.009 | inactive: -0.131
HNRNPC (UniProt P07910) | inactive: -0.002 | inactive: 0.025 | inactive: -0.012 | inactive: 0.02 | inactive: -0.026 | inactive: -0.028 | inactive: 0.296 | inactive: -0.012 | inactive: -0.013 | inactive: 0.015 | inactive: -0.029 | inactive: 0.005 | inactive: -0.042 | inactive: -0.01 | inactive: 0.064 | inactive: -0.025 | inactive: 0.025 | inactive: 0.006 | inactive: -0.007 | inactive: 0.004
HMGN1 (UniProt P05114) | inactive: 0.033 | inactive: -0.037 | inactive: -0.084 | inactive: 0.057 | inactive: 0.031 | inactive: -0.017 | inactive: 0.144 | inactive: -0.013 | inactive: -0.011 | inactive: 0.02 | inactive: 0.044 | inactive: 0.107 | inactive: -0.017 | inactive: -0.06 | inactive: 0.012 | inactive: -0.035 | inactive: -0.008 | inactive: 0.006 | inactive: 0.006 | inactive: -0.005
HNRNPU (UniProt Q00839) | inactive: -0.041 | inactive: 0.007 | inactive: 0.01 | inactive: -0.02 | inactive: -0.016 | inactive: 0.033 | inactive: 0.015 | inactive: -0.055 | inactive: -0.026 | inactive: 0.008 | inactive: 0.028 | inactive: -0.093 | inactive: -0.006 | inactive: 0.011 | inactive: 0.004 | inactive: 0.023 | inactive: 0.012 | inactive: -0.008 | inactive: -0.011 | inactive: -0.003
HSDL1 (UniProt Q3SXM5) | inactive: -0.029 | inactive: 0.011 | inactive: 0.027 | inactive: 0.032 | inactive: 0.027 | inactive: -0.031 | inactive: -0.227 | inactive: 0.04 | inactive: 0.017 | inactive: -0.015 | inactive: -0.082 | inactive: 0.095 | inactive: 0.071 | inactive: 0.006 | inactive: 0.021 | inactive: -0.027 | inactive: 0.097 | inactive: -0.008 | inactive: -0.03 | inactive: -0.037
HERC1 (UniProt Q15751) | inactive: 0.013 | inactive: 0.033 | inactive: 0.028 | inactive: 0.007 | inactive: -0.038 | inactive: 0.014 | inactive: 0.016 | inactive: -0.003 | inactive: 0.009 | inactive: 0.017 | inactive: -0.004 | inactive: -0.059 | inactive: 0.003 | inactive: 0.002 | inactive: -0.015 | inactive: 0.025 | inactive: 0.013 | inactive: -0.014 | inactive: 0.021 | inactive: -0.005

Three neighbouring records out of the list so far, quoted:
Target | log2 fold change (vemurafenib) | log2 fold change [1] | log2 fold change (barasertib) | log2 fold change [2] | log2 fold change (volasertib) | log2 fold change [3] | log2 fold change [4] | log2 fold change [5] | log2 fold change (saracatinib) | log2 fold change (sotrastaurin) | log2 fold change (alvocidib) | log2 fold change (Tubastatin A) | log2 fold change [6] | log2 fold change (defactinib) | log2 fold change [7] | log2 fold change (encorafenib) | log2 fold change [8] | log2 fold change (alisertib) | log2 fold change [9] | log2 fold change (gefitinib)
HSPA14 (UniProt Q0VDF9) | inactive: 0.023 | inactive: 0.011 | inactive: 0.001 | inactive: -0.026 | inactive: -0.043 | inactive: 0.013 | inactive: 0.04 | inactive: -0.021 | inactive: 0.002 | inactive: 0.039 | inactive: 0.001 | inactive: -0.081 | inactive: 0.01 | inactive: 0.012 | inactive: -0.011 | inactive: -0.004 | inactive: 0.153 | inactive: 0.028 | inactive: 0 | inactive: 0.02
HMOX2 (UniProt P30519) | inactive: -0.059 | inactive: -0.015 | inactive: 0.025 | inactive: -0.015 | inactive: 0.005 | inactive: -0.012 | inactive: -0.041 | inactive: -0.01 | inactive: 0.017 | inactive: 0.036 | inactive: -0.024 | inactive: -0.065 | inactive: -0.032 | inactive: -0.029 | inactive: 0.006 | inactive: 0.016 | inactive: -0.063 | inactive: 0.001 | inactive: 0.004 | inactive: -0.022
HMG20A (UniProt Q9NP66) | inactive: -0.008 | inactive: 0.031 | inactive: 0.038 | inactive: 0.071 | inactive: -0.035 | inactive: -0.022 | inactive: -0.005 | inactive: 0.007 | inactive: 0.013 | inactive: 0.024 | inactive: -0.048 | inactive: 0.003 | inactive: -0.025 | inactive: -0.023 | inactive: -0.055 | inactive: -0.012 | inactive: -0.004 | inactive: 0.01 | inactive: 0.066 | inactive: 0.01

From the supplement of paper PMC10849652
